Here are results for 1 substance from US8993717B2 (Imperial Innovations Limited, priority 2009, dated 2015).

The nature of this series: general procedure: Fmoc solid-phase peptide synthesis. Conditions: whole synthesis.

With Z-D-Tyr-D-Glu-D-Arg-D-Phe-NH2, the isolated yield entry is on record as “around 60%”. For the same substance, under “LC-MS and NMR”, the “final HPLC purity” value was “more than 95% pure (HPLC)”.
